This passage reports binding results from article doi:10.1101/2024.06.19.599365.

Amino acid sequences for entries named in this document (tags omitted). Residues count along the entry.
UniProt P38398: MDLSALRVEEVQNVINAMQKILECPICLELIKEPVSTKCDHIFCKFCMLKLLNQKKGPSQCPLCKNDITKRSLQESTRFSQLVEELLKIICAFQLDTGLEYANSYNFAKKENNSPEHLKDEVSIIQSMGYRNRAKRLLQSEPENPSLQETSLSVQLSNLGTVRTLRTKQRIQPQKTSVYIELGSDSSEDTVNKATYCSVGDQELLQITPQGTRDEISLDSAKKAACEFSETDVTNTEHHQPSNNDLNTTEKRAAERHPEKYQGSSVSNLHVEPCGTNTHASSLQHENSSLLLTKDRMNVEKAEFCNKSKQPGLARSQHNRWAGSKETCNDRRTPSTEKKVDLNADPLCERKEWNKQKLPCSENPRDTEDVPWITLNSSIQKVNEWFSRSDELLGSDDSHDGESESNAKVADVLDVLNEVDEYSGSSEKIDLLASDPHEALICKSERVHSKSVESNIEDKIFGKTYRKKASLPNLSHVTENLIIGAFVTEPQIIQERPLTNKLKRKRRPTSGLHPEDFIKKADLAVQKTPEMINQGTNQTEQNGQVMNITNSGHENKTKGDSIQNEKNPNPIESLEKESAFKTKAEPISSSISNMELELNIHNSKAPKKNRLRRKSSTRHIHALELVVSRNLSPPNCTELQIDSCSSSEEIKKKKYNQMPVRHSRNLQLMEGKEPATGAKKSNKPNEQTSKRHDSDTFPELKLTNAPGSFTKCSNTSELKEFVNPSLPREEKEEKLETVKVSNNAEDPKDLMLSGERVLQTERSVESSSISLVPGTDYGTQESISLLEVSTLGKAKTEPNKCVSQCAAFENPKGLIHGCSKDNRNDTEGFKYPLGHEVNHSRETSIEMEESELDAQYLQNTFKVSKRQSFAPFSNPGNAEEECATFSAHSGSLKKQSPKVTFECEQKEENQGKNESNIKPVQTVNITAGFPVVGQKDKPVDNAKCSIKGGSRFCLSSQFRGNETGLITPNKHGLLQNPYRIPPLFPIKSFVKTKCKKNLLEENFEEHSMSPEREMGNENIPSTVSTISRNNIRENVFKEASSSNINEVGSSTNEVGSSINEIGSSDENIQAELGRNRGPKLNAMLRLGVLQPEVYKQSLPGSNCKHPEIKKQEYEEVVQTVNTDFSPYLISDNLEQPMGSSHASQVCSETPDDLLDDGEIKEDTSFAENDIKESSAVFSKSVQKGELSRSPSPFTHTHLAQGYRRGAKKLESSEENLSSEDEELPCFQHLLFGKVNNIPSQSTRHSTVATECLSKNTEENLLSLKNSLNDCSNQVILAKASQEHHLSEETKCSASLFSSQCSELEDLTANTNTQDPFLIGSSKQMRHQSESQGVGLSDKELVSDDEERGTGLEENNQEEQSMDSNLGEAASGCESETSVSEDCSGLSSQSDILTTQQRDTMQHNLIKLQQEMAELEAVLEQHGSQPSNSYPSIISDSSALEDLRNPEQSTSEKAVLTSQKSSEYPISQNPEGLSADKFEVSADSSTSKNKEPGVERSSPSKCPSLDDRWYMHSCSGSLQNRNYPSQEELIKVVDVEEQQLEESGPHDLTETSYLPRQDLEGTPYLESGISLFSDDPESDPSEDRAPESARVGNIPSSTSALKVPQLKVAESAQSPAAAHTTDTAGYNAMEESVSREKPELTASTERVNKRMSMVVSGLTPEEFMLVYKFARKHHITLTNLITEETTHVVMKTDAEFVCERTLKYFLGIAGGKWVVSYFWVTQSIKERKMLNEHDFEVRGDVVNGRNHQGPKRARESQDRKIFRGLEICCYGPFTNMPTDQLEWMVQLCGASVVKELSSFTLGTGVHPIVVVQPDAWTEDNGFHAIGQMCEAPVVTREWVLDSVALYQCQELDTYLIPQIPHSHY
UniProt P11940: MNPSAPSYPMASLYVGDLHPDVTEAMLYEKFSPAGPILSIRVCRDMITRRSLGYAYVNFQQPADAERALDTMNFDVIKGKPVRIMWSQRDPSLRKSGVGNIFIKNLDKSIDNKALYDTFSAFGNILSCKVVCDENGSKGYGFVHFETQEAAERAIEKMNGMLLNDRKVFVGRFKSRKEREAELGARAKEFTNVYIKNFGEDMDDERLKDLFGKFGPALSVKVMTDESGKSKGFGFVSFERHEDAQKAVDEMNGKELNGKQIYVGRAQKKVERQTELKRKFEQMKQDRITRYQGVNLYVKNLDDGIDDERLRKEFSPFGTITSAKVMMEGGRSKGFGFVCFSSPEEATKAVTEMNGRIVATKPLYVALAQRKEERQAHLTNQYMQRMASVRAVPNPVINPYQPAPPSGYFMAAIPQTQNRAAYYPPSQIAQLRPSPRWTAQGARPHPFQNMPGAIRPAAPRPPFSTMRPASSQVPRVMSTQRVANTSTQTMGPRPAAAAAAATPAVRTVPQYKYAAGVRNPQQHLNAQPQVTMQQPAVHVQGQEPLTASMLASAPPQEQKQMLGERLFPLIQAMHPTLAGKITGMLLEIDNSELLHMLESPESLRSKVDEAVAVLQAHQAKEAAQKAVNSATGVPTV
UniProt P02545, residues 1-646: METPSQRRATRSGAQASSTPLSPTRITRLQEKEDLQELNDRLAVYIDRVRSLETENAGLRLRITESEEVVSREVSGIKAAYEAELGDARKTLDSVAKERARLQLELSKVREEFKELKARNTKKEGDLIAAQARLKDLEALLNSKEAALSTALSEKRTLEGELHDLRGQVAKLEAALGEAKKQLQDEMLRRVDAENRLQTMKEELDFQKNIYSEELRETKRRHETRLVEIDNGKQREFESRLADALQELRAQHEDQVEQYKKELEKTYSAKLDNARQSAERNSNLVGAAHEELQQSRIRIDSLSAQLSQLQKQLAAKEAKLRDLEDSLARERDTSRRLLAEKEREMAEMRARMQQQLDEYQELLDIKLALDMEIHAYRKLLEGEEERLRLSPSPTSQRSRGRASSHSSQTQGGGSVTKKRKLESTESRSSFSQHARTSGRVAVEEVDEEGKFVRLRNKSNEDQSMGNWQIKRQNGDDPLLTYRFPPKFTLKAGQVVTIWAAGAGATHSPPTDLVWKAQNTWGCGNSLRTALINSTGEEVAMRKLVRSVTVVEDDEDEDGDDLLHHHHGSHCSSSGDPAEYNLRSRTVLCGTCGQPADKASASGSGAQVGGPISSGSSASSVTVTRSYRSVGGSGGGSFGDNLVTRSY
UniProt Q93008: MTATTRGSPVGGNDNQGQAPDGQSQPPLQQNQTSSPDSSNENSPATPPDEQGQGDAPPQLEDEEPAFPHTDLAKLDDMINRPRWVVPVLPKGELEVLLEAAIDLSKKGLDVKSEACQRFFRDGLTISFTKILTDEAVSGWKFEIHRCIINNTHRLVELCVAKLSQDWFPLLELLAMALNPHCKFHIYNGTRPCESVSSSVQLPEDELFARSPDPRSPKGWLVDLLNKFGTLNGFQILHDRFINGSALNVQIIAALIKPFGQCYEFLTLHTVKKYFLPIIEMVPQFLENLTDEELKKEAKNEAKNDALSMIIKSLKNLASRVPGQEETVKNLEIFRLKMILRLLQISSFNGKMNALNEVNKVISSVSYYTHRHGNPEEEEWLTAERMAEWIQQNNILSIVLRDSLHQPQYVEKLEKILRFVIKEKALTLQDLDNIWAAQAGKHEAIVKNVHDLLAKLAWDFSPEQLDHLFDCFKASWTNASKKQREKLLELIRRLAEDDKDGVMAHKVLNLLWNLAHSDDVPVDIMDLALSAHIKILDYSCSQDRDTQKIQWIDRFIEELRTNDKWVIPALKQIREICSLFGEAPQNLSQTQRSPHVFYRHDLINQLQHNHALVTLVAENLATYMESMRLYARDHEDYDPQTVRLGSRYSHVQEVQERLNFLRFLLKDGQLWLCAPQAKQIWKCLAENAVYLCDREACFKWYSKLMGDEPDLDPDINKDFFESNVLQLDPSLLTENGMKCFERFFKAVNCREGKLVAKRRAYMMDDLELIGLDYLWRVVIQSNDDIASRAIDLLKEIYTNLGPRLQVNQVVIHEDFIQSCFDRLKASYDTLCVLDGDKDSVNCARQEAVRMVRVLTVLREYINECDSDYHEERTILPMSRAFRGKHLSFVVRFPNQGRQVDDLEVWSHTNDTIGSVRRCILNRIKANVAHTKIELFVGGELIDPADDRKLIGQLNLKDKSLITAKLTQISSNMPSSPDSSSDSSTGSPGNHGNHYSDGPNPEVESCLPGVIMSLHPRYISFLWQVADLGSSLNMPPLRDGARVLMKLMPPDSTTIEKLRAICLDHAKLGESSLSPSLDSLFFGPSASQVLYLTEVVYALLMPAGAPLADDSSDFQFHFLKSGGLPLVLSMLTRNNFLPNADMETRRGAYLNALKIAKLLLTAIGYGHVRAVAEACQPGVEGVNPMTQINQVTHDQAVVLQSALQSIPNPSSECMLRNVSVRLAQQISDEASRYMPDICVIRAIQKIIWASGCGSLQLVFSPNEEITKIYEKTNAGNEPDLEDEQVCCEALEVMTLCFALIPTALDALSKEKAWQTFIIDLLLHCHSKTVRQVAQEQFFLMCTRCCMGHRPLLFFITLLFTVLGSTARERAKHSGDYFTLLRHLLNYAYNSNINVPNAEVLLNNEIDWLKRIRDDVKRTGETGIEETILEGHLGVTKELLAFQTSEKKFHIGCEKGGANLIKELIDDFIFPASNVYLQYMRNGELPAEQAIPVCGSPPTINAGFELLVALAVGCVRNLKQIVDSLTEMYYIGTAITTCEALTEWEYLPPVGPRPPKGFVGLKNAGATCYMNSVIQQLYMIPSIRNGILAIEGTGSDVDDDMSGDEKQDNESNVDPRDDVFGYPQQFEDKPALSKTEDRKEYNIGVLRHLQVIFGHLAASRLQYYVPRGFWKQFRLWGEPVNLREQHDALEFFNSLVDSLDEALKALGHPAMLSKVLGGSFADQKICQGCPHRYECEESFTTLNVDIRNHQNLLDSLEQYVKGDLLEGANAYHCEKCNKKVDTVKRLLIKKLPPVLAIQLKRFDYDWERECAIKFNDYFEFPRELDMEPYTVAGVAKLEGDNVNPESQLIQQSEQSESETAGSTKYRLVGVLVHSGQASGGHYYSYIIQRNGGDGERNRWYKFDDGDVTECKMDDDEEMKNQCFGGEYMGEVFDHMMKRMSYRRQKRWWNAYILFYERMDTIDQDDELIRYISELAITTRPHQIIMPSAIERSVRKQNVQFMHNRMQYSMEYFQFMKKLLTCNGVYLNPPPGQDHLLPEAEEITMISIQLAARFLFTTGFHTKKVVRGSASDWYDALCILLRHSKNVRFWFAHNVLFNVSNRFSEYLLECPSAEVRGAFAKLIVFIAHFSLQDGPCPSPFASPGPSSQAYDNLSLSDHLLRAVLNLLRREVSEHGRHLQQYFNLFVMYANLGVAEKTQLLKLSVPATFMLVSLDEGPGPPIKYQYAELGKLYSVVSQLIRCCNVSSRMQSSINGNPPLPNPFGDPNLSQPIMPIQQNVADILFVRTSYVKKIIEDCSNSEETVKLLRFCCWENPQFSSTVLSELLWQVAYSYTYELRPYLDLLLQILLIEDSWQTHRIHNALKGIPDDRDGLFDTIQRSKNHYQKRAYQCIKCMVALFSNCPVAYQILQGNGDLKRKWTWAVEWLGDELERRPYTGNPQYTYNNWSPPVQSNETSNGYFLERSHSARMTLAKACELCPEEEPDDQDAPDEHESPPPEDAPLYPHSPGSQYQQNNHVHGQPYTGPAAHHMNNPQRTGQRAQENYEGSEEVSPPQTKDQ
UniProt O15234: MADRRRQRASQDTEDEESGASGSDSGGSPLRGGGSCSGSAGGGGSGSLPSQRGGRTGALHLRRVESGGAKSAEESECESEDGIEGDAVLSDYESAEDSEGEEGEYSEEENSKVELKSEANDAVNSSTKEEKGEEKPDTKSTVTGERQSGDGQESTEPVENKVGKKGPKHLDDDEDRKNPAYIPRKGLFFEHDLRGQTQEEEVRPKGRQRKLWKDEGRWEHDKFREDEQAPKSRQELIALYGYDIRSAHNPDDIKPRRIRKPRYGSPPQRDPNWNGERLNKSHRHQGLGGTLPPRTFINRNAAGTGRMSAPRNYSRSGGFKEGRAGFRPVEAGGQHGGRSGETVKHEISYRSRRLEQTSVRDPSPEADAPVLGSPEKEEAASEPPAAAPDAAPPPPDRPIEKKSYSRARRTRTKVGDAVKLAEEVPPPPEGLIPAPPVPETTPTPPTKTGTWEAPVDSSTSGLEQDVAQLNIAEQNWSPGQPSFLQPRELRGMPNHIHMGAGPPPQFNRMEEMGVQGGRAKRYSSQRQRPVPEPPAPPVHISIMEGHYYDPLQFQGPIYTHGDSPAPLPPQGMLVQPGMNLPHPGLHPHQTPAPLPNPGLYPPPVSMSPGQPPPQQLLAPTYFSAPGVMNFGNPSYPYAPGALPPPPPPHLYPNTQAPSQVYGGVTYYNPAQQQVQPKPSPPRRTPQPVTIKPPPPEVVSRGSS

The chains are these.
B1: HNRNPM (protein, UniProt P52272 1-730)
chain: MAAGVEAAAEVAATEIKMEEESGAPGVPSGNGAPGPKGEGERPAQNEKRKEKNIKRGGNRFEPYANPTKRYRAFITNIPFDVKWQSLKDLVKEKVGEVTYVELLMDAEGKSRGCAVVEFKMEESMKKAAEVLNKHSLSGRPLKVKEDPDGEHARRAMQKVMATTGGMGMGPGGPGMITIPPSILNNPNIPNEIIHALQAGRLGSTVFVANLDYKVGWKKLKEVFSMAGVVVRADILEDKDGKSRGIGTVTFEQSIEAVQAISMFNGQLLFDRPMHVKMDERALPKGDFFPPERPQQLPHGLGGIGMGLGPGGQPIDANHLNKGIGMGNIGPAGMGMEGIGFGINKMGGMEGPFGGGMENMGRFGSGMNMGRINEILSNALKRGEIIAKQGGGGGGGSVPGIERMGPGIDRLGGAGMERMGAGLGHGMDRVGSEIERMGLVMDRMGSVERMGSGIERMGPLGLDHMASSIERMGQTMERIGSGVERMGAGMGFGLERMAAPIDRVGQTIERMGSGVERMGPAIERMGLSMERMVPAGMGAGLERMGPVMDRMATGLERMGANNLERMGLERMGANSLERMGLERMGANSLERMGPAMGPALGAGIERMGLAMGGGGGASFDRAIEMERGNFGGSFAGSFGGAGGHAPGVARKACQIFVRNLPFDFTWKMLKDKFNECGHVLYADIKMENGKSKGCGVVKFESPEVAERACRMMNGMKLSGREIDVRIDRNA

These are yes or no findings as the source states them, for the method shown. In cells and extracts the contact can be indirect. These calls come from enrichment with a bait or labelling near it, and not all partners need be listed.

The assay has as its target BRCA1 (human (endogenous in PC3 and LNCaP)) (UniProt P38398). Description: affinity purification with mass spectrometry.
As to UBA1 (from UniProt P22314 1-1058), the binding result was “binds”. For KNTC1 (from UniProt P50748 1-2209), the binding result was “binds”.

In the case of PABPC1 (from UniProt P11940 1-636), the binding entry is listed as “binds”.

Consider “Raptor (from UniProt Q8N122 1-1335) (other; other documents disagree on this pair)”, for which the binding result is “binds”. On to ASH2L (from UniProt Q9UBL3 1-628), for which the binding entry is given as “binds”. Take LMNA (from UniProt P02545 1-646): the binding entry is recorded as “binds”.

On to DDB1 (from UniProt Q16531 1-1140), for which the binding entry was “binds”. In the case of USP9X (from UniProt Q93008 1-2554), the binding result is “binds”. CASC3 (from UniProt O15234 1-703): the binding entry is given as “binds”. As for RBBP5 (from UniProt Q15291 1-538), the entry is “binds”; as for B1, “binds”.
